Reference: the supplement of paper PMC12819154, “High-throughput peptide-centric local stability assay extends protein–ligand identification to membrane proteins, tissues and bacteria” (Nature Structural & Molecular Biology, 2025)
Some of the results follow. Most entries show no effect beyond the scatter of the controls.

Amino acid sequences for entries named in this document (tags omitted). A change or cut given only in a name is not applied to a line headed by its entry.
UniProt Q92989: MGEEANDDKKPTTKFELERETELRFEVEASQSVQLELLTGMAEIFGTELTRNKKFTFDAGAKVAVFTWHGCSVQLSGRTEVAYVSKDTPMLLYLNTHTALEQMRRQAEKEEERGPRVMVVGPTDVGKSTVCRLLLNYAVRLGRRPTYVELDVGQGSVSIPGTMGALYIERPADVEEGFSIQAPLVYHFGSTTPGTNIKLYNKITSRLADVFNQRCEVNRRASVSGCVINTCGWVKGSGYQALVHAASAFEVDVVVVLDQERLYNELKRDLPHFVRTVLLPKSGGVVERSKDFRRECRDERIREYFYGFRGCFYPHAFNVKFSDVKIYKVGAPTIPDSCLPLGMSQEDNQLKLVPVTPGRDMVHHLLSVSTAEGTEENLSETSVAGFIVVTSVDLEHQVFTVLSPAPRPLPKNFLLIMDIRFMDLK
UniProt Q96BM9: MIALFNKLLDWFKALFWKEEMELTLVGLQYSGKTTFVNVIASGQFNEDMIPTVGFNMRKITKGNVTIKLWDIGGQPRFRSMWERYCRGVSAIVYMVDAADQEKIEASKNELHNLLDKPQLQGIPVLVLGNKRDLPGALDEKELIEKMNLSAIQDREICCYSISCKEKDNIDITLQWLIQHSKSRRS
UniProt Q96DH6: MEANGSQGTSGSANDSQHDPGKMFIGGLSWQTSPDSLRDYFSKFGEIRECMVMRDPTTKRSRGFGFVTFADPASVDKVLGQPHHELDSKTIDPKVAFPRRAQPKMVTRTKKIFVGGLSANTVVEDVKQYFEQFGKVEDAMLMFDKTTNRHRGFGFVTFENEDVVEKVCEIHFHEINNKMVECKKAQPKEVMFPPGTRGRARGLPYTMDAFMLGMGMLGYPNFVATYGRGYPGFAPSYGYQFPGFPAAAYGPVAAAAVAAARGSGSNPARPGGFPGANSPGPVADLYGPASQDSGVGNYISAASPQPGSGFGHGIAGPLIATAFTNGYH
UniProt Q96AD5: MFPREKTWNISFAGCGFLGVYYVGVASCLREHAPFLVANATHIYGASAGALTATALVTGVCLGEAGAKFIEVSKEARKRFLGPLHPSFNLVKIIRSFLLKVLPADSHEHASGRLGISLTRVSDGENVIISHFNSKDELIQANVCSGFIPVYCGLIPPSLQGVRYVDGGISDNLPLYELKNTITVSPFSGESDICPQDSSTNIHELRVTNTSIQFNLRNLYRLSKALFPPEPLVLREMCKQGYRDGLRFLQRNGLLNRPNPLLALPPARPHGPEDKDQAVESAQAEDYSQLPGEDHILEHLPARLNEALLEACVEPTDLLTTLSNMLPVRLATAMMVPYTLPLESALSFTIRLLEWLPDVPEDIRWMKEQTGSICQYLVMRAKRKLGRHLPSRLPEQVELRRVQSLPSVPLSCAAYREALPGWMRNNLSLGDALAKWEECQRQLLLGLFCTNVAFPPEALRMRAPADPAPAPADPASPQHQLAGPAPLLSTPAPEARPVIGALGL
UniProt Q92688: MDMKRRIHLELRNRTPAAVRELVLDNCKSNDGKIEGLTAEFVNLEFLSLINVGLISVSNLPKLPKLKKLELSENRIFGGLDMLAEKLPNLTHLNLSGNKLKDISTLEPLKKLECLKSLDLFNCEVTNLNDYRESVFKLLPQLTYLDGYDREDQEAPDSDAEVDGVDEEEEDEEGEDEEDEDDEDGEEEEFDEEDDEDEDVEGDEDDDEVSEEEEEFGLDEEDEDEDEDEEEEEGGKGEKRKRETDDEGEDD
UniProt Q92833: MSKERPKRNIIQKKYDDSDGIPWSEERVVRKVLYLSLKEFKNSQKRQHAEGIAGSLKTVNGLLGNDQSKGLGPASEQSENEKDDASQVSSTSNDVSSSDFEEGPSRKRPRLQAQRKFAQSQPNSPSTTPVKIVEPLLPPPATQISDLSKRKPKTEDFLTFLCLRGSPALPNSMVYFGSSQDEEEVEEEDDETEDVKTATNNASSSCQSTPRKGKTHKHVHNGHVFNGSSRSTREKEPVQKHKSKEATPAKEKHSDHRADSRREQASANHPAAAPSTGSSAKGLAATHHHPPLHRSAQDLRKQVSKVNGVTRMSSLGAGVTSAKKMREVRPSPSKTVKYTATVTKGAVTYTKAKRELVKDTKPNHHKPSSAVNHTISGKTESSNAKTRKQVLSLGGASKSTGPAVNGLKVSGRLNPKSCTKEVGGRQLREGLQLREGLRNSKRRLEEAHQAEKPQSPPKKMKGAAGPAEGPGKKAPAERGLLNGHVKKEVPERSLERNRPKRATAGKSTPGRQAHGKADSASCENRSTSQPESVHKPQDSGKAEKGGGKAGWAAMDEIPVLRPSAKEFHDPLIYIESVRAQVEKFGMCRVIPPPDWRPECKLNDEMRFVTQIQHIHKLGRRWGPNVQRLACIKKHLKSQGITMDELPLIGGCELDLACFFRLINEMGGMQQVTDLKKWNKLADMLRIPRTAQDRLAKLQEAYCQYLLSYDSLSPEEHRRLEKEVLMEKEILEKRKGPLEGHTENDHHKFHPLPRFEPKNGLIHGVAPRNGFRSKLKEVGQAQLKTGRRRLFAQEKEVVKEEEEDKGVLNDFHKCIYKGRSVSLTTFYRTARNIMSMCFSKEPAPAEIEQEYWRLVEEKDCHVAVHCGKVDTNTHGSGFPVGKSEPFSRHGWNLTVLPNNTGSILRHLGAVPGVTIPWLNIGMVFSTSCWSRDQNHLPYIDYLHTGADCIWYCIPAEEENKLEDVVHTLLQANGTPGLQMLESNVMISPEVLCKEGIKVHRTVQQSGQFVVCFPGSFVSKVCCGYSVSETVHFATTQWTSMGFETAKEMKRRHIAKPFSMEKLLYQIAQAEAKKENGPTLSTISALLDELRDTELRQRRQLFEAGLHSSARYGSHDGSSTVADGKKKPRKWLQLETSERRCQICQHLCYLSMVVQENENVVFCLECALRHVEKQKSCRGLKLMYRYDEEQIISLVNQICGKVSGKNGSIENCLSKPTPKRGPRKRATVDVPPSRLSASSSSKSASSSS
UniProt Q92766: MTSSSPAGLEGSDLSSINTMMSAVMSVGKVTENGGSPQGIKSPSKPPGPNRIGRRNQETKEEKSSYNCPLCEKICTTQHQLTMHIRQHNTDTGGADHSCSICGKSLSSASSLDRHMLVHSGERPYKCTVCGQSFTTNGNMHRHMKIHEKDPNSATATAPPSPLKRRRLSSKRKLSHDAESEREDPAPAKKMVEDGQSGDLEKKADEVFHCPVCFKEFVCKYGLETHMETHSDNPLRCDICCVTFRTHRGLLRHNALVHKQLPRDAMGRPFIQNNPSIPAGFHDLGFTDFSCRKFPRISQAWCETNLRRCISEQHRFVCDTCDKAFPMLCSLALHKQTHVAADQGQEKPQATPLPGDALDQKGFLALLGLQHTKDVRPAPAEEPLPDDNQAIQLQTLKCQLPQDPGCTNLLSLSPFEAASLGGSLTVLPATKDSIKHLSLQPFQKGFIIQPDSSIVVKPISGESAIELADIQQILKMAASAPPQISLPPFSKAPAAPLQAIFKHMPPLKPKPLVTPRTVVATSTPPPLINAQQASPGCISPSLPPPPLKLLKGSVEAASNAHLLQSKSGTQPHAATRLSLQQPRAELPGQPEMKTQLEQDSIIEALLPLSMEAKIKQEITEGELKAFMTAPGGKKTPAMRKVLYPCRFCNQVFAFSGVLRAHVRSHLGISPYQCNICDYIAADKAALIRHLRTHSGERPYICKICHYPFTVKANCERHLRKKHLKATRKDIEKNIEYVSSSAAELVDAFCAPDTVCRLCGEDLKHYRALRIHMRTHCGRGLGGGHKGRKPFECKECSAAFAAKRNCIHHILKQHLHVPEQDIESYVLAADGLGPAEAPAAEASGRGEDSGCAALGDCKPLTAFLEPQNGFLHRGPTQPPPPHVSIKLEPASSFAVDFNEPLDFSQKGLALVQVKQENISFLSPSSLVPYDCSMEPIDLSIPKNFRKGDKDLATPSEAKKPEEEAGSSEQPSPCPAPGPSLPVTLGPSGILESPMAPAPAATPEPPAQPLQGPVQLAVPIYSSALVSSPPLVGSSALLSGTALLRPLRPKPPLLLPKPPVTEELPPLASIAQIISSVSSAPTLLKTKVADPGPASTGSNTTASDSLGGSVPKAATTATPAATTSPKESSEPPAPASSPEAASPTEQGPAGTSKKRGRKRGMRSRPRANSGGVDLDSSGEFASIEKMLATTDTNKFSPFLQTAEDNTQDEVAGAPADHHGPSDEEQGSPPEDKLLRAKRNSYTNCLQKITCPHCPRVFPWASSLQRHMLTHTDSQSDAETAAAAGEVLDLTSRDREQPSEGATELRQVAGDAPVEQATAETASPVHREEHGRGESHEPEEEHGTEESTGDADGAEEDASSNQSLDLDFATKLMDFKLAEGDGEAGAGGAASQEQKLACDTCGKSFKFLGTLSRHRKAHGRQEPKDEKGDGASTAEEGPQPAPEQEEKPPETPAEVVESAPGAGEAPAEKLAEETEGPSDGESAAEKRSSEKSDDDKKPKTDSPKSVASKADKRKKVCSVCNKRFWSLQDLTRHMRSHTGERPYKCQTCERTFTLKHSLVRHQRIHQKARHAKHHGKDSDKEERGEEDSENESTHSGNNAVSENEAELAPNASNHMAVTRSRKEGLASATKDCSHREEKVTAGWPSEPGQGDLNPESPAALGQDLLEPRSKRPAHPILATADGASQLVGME
UniProt Q92890: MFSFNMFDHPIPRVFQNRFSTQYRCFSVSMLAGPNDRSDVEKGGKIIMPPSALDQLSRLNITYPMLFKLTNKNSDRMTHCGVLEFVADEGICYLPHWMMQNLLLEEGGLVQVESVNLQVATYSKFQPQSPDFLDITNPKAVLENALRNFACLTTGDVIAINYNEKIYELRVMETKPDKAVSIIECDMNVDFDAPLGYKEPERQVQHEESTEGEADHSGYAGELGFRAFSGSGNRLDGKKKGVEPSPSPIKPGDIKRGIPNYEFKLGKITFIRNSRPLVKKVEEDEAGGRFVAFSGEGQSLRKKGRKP
UniProt Q96C24: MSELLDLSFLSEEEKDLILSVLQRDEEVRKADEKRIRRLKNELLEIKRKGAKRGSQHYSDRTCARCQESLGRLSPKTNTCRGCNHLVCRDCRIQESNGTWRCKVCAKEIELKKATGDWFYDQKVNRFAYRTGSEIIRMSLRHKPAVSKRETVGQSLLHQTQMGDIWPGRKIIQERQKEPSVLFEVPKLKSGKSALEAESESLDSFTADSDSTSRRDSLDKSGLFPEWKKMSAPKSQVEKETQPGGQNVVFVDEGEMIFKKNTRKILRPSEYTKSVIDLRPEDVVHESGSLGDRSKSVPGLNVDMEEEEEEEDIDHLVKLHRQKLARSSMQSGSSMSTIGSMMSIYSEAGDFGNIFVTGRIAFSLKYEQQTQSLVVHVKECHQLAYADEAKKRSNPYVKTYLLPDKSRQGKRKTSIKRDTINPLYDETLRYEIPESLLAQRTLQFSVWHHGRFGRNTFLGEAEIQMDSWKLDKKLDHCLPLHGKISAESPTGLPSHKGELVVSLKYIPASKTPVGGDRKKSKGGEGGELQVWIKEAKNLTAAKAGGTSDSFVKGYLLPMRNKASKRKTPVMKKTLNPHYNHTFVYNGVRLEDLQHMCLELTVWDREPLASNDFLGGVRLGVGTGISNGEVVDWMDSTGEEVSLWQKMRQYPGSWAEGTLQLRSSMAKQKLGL
UniProt Q96CB8, whole entry: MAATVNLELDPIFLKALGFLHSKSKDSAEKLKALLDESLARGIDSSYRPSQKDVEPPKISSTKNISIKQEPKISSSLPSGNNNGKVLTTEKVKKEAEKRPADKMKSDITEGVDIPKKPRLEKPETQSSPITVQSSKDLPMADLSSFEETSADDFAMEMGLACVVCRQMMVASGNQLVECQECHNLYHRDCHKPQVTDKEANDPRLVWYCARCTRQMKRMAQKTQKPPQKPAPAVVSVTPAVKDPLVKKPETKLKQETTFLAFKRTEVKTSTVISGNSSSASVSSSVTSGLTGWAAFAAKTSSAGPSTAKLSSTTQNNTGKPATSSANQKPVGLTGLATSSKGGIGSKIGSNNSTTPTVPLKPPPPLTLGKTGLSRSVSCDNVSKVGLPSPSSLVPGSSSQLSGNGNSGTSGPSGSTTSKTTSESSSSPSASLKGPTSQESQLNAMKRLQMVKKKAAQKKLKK
UniProt Q969Q6: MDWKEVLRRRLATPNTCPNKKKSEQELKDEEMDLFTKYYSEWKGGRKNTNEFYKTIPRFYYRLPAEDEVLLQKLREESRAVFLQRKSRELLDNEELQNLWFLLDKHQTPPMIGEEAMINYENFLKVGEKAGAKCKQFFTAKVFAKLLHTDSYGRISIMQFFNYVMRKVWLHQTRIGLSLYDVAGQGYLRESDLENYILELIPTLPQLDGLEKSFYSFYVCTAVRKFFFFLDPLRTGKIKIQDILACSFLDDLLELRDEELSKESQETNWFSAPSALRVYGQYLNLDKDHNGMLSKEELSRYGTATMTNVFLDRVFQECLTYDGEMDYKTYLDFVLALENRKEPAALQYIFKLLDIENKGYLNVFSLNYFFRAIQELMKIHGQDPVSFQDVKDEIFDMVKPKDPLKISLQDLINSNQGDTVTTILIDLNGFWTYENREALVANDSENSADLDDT

Compound: Cc1nc(Nc2ncc(C(=O)Nc3c(C)cccc3Cl)s2)cc(N2CCN(CCO)CC2)n1 [dasatinib]
Assay: log2 fold change of tryptic peptide abundance, ligand vs vehicle (limited proteolysis) (log2 ratio); higher = more trypsin-susceptible (destabilized)
Conditions: ligand concentration: 5 uM; sample: K562 cleared lysate

| Target | log2 fold change |
| --- | --- |
| CLP1 (peptide sequence: TEVAYVSK, peptide start residue: 79) (UniProt Q92989) | -0.221 |
| RBMXL1 (peptide sequence: AIKVEQATKPSFER, peptide start residue: 78) (UniProt Q96E39) | 0.2 |
| ACD (peptide sequence: LRVPGCNQDLDVQK, peptide start residue: 133) (UniProt Q96AP0) | -0.438 |
| ARL8A (peptide sequence: LWDIGGQPR, peptide start residue: 69) (UniProt Q96BM9) | -0.0817 |
| TCEAL4 (peptide sequence: KLENEGKTENK, peptide start residue: 40) (UniProt Q96EI5) | 0.627 |
| FLYWCH2 (peptide sequence: KGVHCVMSLGVPGPATLAK, peptide start residue: 60) (UniProt Q96CP2) | 0.165 |
| MSI2 (peptide sequence: ECMVMRDPTTK, peptide start residue: 49) (UniProt Q96DH6) | 0.0805 |
| OSTF1 (peptide sequence: LGDTALHAAAWK, peptide start residue: 139) (UniProt Q92882) | -0.437 |
| CHMP4C (peptide sequence: SVHENMDLNK, peptide start residue: 118) (UniProt Q96CF2) | 0.319 |
| UniProt Q969W8 (peptide sequence: HPSRLTHHQK, peptide start residue: 210) | -0.411 |
| MRPL24 (peptide sequence: LVDPMDRKPTEIEWR, peptide start residue: 122) (UniProt Q96A35) | -0.228 |
| DHX38 (peptide sequence: YMTDGILLR, peptide start residue: 627) (UniProt Q92620) | 0.0897 |
| RNF34 (peptide sequence: SQTSSFFTR, peptide start residue: 169) (UniProt Q969K3) | 0.077 |
| GPRASP2 (peptide sequence: TQATTGARPK, peptide start residue: 42) (UniProt Q96D09) | 0.478 |
| GTF2H4 (peptide sequence: LYGHPATCLAVFR, peptide start residue: 34) (UniProt Q92759) | -0.543 |
| EVPL (peptide sequence: QAREEEAR, peptide start residue: 1551) (UniProt Q92817) | -0.111 |
| PNPLA2 (peptide sequence: LPEQVELR, peptide start residue: 393) (UniProt Q96AD5) | -0.149 |
| UPF1 (peptide sequence: LLGHEVEDVIIK, peptide start residue: 456) (UniProt Q92900) | -0.336 |
| GLMN (peptide sequence: STSEENIGIK, peptide start residue: 585) (UniProt Q92990) | -0.0853 |
| SNRNP40 (peptide sequence: KGPELPLVPVKR, peptide start residue: 8) (UniProt Q96DI7) | -0.088 |
| BCL2L2 (peptide sequence: ALVADFVGYK, peptide start residue: 12) (UniProt Q92843) | -0.213 |

| Target | log2 fold change |
| --- | --- |
| FUBP1 (peptide sequence: IGGDAGTSLNSNDYGYGGQK, peptide start residue: 45) (UniProt Q96AE4) | 0.248 |
| ANP32B (peptide sequence: LPNLTHLNLSGNKLK, peptide start residue: 87) (UniProt Q92688) | -0.498 |
| PPP1R14A (peptide sequence: ARGPGGSPGGLQKR, peptide start residue: 20) (UniProt Q96A00) | -0.115 |
| UBE2E3 (peptide sequence: KPSATQQK, peptide start residue: 39) (UniProt Q969T4) | -0.0173 |
| UniProt Q96CS4 (peptide sequence: RAHSGECPYVCDQCGKR, peptide start residue: 197) | -0.506 |
| KHSRP (peptide sequence: MMLDDIVSR, peptide start residue: 206) (UniProt Q92945) | -0.132 |
| RSC1A1 (peptide sequence: ASAEFQLNSEKK, peptide start residue: 58) (UniProt Q92681) | -0.417 |
| LENG1 (peptide sequence: GGPPPGPAPDEK, peptide start residue: 138) (UniProt Q96BZ8) | -0.102 |
| RAB8B (peptide sequence: MNDSNSAGAGGPVK, peptide start residue: 177) (UniProt Q92930) | -0.0382 |
| SMARCD2 (peptide sequence: RLLVPQAQPPMPAQR, peptide start residue: 118) (UniProt Q92925) | -0.255 |
| ZNF622 (peptide sequence: NVVAVGTGGR, peptide start residue: 157) (UniProt Q969S3) | 0.0729 |
| RAD51AP1 (peptide sequence: QDKPKPNLNNLR, peptide start residue: 45) (UniProt Q96B01) | -0.482 |
| CHFR (peptide sequence: LVSGDHCR, peptide start residue: 55) (UniProt Q96EP1) | 0.225 |
| RNF166 (peptide sequence: SANFLQHLLHR, peptide start residue: 197) (UniProt Q96A37) | 0.345 |
| WDR34 (peptide sequence: SFVCAWNLDRR, peptide start residue: 193) (UniProt Q96EX3) | 0.331 |
| UniProt Q96CW1 (peptide sequence: DIILPFR, peptide start residue: 282) | -0.256 |
| TAF4B (peptide sequence: SIIVSGATAPR, peptide start residue: 379) (UniProt Q92750) | 0.337 |
| UniProt Q92888 (peptide sequence: QEVISELLVTEAAHVR, peptide start residue: 418) | 0.286 |
| JARID2 (peptide sequence: STSQPESVHKPQDSGK, peptide start residue: 526) (UniProt Q92833) | -0.322 |
| TMEM159 (peptide sequence: AKEEPQSISR, peptide start residue: 2) (UniProt Q96B96) | 0.306 |
| CMBL (peptide sequence: YLKQQCHAQK, peptide start residue: 116) (UniProt Q96DG6) | 0.41 |

Taken from above (2 entries):

| Target | log2 fold change |
| --- | --- |
| TAF4B (peptide sequence: SIIVSGATAPR, peptide start residue: 379) (UniProt Q92750) | 0.337 |
| UniProt Q92888 (peptide sequence: QEVISELLVTEAAHVR, peptide start residue: 418) | 0.286 |

Later entries:

| Target | log2 fold change |
| --- | --- |
| NSMAF (peptide sequence: KKQQEQQLQLYSK, peptide start residue: 6) (UniProt Q92636) | 0.501 |
| EME1 (peptide sequence: QPEASIGSMVSR, peptide start residue: 394) (UniProt Q96AY2) | 0.316 |
| RBM33 (peptide sequence: RNIPETLELSAEAK, peptide start residue: 240) (UniProt Q96EV2) | 0.315 |
| UniProt Q96CJ1 (peptide sequence: IPDIDASHNR, peptide start residue: 224) | -0.183 |
| RREB1 (peptide sequence: SGTQPHAATR, peptide start residue: 567) (UniProt Q92766) | 0.338 |
| MYST3 (peptide sequence: SVILECLYHQNDK, peptide start residue: 697) (UniProt Q92794) | -0.855 |
| MRRF (peptide sequence: VPIPQVTR, peptide start residue: 180) (UniProt Q96E11) | 0.288 |
| COPS5 (peptide sequence: TTIEAIHGLMSQVIKDK, peptide start residue: 310) (UniProt Q92905) | -0.203 |
| NT5C3B (peptide sequence: IGFLNDKVEER, peptide start residue: 250) (UniProt Q969T7) | 0.157 |
| DPF2 (peptide sequence: SGHPSCLQFTPVMMAAVK, peptide start residue: 301) (UniProt Q92785) | -0.54 |
| PTER (peptide sequence: ILQEAGADISK, peptide start residue: 215) (UniProt Q96BW5) | -0.33 |
| CCDC51 (peptide sequence: TAYLRAEDSER, peptide start residue: 166) (UniProt Q96ER9) | 0.15 |
| CREBBP (peptide sequence: SEPMEVDEKKPEVK, peptide start residue: 1043) (UniProt Q92793) | 0.133 |
| TATDN2 (peptide sequence: VVIDPQEKPSEEPLGDRR, peptide start residue: 275) (UniProt Q93075) | 0.205 |
| UniProt Q92890 (peptide sequence: GIPNYEFK, peptide start residue: 257) | -0.104 |
| CCDC102A (peptide sequence: TKQEMLK, peptide start residue: 300) (UniProt Q96A19) | 0.417 |
| SYTL4 (peptide sequence: ATGDWFYDQK, peptide start residue: 114) (UniProt Q96C24) | 0.197 |
| STAM (peptide sequence: ASPALVAKDPGTVANKK, peptide start residue: 155) (UniProt Q92783) | -0.408 |
| INTS12 (peptide sequence: SVSCDNVSK, peptide start residue: 376) (UniProt Q96CB8) | 0.361 |
| PPP2R3C (peptide sequence: KNTNEFYK, peptide start residue: 47) (UniProt Q969Q6) | 1.49 |

2 records picked at random from those above, as already listed:

| Target | log2 fold change |
| --- | --- |
| PPP2R3C (peptide sequence: KNTNEFYK, peptide start residue: 47) (UniProt Q969Q6) | 1.49 |
| PTER (peptide sequence: ILQEAGADISK, peptide start residue: 215) (UniProt Q96BW5) | -0.33 |
